From US20170096670 come the findings set out here.

For some assays here: Negatives hold for the conditions tested. Tags and fusion partners may be left off the protein sequences shown. For some assays here: For at least one entry, the source does not settle the construct or the ends of the probe.

The target in data set [1] is T1, CD200R1 (on C57BL/6 splenocytes in allo-MLC) (Mus musculus) (UniProt Q9ES57).
T1 sequence (looked up, limits assumed): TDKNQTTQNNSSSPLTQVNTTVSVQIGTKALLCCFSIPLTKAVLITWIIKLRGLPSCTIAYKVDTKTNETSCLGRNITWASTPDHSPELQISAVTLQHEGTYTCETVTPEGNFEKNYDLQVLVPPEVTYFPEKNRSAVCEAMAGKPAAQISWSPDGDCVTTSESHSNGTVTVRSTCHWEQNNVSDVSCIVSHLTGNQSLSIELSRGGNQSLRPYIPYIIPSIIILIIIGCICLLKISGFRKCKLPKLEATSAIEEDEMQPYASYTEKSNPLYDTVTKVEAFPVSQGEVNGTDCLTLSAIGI
In words: activity in cells. The following applies: protein on the cell surface, single-stranded DNA.

In data set [2] the target is T2, CD200R1 (recombinant) (Homo sapiens) (UniProt Q8TD46).
T2 sequence (looked up, limits assumed): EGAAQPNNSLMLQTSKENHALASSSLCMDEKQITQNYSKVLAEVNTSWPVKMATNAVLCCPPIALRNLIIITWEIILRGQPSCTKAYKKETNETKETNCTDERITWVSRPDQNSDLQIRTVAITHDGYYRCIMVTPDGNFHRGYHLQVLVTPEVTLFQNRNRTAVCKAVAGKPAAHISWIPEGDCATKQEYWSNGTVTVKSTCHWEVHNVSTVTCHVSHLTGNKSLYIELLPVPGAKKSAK
In words: SELEX. As to conditions: enriched in both murine and human CD200R1 pools at cycle 15; purified recombinant protein; single-stranded DNA.

Data set [3] deals with T3, CD200R1 (extracellular domain, recombinant) (Mus musculus) (UniProt Q9ES57).
T3 sequence (looked up, limits assumed): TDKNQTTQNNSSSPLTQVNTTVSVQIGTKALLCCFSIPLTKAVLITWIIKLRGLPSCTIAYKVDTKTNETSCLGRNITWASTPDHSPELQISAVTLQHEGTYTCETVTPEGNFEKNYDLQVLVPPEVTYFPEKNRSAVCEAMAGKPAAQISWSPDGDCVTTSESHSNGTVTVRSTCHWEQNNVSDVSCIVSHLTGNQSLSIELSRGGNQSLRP
In words: SELEX. The following applies: purified recombinant protein, protein details: HIS-tag, immobilized on MagneHis Ni-Particles, single-stranded DNA.

In data set [4] the target is T4, CD200R1 (full length, stably expressed in HEK-293) (Mus musculus) (UniProt Q9ES57).
T4 sequence (looked up, limits assumed): T1 sequence (looked up, limits assumed)
In words: activity in cells. As to conditions: protein on the cell surface, single-stranded DNA.

In data set [5] the target is T5, CD200R1 (on human cells in allo-MLC) (Homo sapiens) (UniProt Q8TD46).
T5 sequence (looked up, limits assumed): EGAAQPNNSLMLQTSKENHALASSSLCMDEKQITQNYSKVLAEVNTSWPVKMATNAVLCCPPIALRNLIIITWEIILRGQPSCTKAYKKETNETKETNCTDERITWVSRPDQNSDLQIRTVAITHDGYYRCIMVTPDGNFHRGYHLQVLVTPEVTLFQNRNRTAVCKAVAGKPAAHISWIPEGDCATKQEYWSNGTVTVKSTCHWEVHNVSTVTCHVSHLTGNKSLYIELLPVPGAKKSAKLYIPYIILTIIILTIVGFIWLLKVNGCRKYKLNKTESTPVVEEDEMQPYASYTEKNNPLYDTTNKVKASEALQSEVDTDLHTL
As to the kind of experiment: activity in cells. As to conditions: human allo-MLC, protein on the cell surface, single-stranded DNA.

[6] abbreviates: enriched in both murine and human CD200R1 pools at cycle 15.
Where [7] appears, read: enriched after 15 rounds, PBS pH 7.4, 37 C.

Take “CGGCACAGACGTTTATTACCATTATGCCTATGTAACGTATGCCG [TrM52 (M52-T1)]”: the “functional effect of the aptamer” value in data set [1] (suppresses CTL induction equivalent to full length, variant of M52, dose not given here) was “active”.

For the sequence “GACGATAGCGGTGACGGCACAGACGCCCCTCCGAGTGATATGTAATCCTACGTATGCCGCTTCCGTCCGTCGCTC [CCS8]”, the selection result in data set [2] and in data set [3] (setting [6]) was “selected” throughout.

“GACGATAGCGGTGACGGCACAGACGTCCCGCATCCTCCGCCGTGCCGACCCGTATGCCGCTTCCGTCCGTCGCTC [PEG-cApt]”: the “functional effect of the aptamer” value was “not active” in data set [4] (5' amine C6 spacer 20 kDa PEG, no detectable CD200R1 phosphorylation, 2.5 uM, variant of cApt); “not active” in data set [5] (5' amine C6 spacer 20 kDa PEG, no significant suppression, variant of cApt, dose not given here); “not active” in data set [1] (5' amine C6 spacer 20 kDa PEG, mouse allo-MLC, no significant suppression, variant of cApt, dose not given here).

With “GACGATAGCGGTGACGGCACAGACGTCCCGCATCCTCCGCCGTGCCGACCCGTATGCCGCTTCCGTCCGTCGCTC [cApt]”, the “functional effect of the aptamer” value is recorded as “not active” in data set [4] (negative control in phosphorylation assay, 3 uM) and “not active” in data set [1] (scrambled control in CTL induction assay, dose not given here).

Take “GACGATAGCGGTGACGGCACAGACGTTTATTACCATTATGCCTATGTAACGTATGCCGCTTCCGTCCGTCGCTC [PEG-M52]”: the “functional effect of the aptamer” value in data set [4] (5' amine C6 spacer 20 kDa PEG, induces phosphorylation of CD200R1 cytoplasmic tail, 2.5 uM, 30 min, variant of M52) is “active”.

For “GACGATAGCGGTGACGGCACAGACGCACCGCTCTTATGCCACCATTTTCACGTATGCCGCTTCCGTCCGTCGCTC [PEG-CCS13]”, the “functional effect of the aptamer” value is recorded as “active” in data set [5] (5' amine C6 spacer 20 kDa PEG, 3 ug/mL, significant suppression of CTL induction, variant of CCS13) and “active” in data set [1] (5' amine C6 spacer 20 kDa PEG, mouse allo-MLC, 3 ug/mL, significant suppression of CTL induction, variant of CCS13).

For “GACGATAGCGGTGACGGCACAGACGCCCCTCCGAGTGATATGTAATCCTACGTATGCCGCTTCCGTCCGTCGCTC [PEG-CCS8]”, the “functional effect of the aptamer” value was “active” in data set [5] (5' 20 kDa PEG, activity retained after PEGylation, variant of CCS8, dose not given here) and “active” in data set [1] (5' 20 kDa PEG, mouse allo-MLC, activity retained after PEGylation, variant of CCS8, dose not given here).

As to “GACGATAGCGGTGACGGCACAGACGGACGTGACATGCTTGACCAACTCGCCGTATGCCGCTTCCGTCCGTCGCTC [M49]”, the “functional effect of the aptamer” value in data set [4] (positive control for CD200R1 phosphorylation, 1.5 uM) is reported as “active”. Besides, the selection result in data set [3] (setting [7]) is on record as “selected”.

For “GACGATAGCGGTGACGGCACAGACGGACGTGACATGCTTGACCAACTCGCCGTATGCCGCTTCCGTCCGTCGCTC [PEG-M49]”, the “functional effect of the aptamer” value in data set [4] (5' amine C6 spacer 20 kDa PEG, induces phosphorylation of CD200R1 cytoplasmic tail, 2.5 uM, 30 min, variant of M49) was “active”.

In the case of “GACGATAGCGGTGACGGCACAGACGTTTATTACCATTATGCCTATGTAACGTATGCCGCTTCCGTCCGTCGCTC [M52]”, the selection result in data set [3] (setting [7]) is “selected”.

In the case of “GACGATAGCGGTGACGGCACAGACGCACCGCTCTTATGCCACCATTTTCACGTATGCCGCTTCCGTCCGTCGCTC [CCS13]”, the “functional effect of the aptamer” value in data set [4] (full length induces CD200R1 phosphorylation, 3 uM) is “active”. Further, the selection result in data set [2] and in data set [3] (setting [6]) was “selected” throughout.
